≈ marks a conversion by molar mass, not a printed value.
Assays:
C. albicans ATCC90028 = experiment: Minimal inhibitory concentration (MIC), C. albicans ATCC90028; assay type: cell-based; settings: Candida albicans; C. albicans ATCC90028, 16 hours, no visible growth; Table 3a; read-out: MIC against ATCC90028
Experimental: (§1) C. albicans cells, laboratory strain SC5314 or ATCC90028, were cultured on solid BHI (Oxoid) medium at 37° C. for 24 hours and stored at 4° C. for up to one month. Prior to experiments, a colony of C. albicans was sub-cultured into liquid BHI medium overnight at 37° C.
(§2) C. albicans cells, laboratory strain SC5314 or ATCC90028, were cultured on solid BHI (Oxoid) medium at 37° C. for 24 hours and stored at 4° C. for up to one month. Prior to experiments, a colony of C. albicans was sub-cultured into liquid BHI medium overnight at 37° C. Overnight cultures of C. albicans were adjusted to an optical density at 600 nm of 0.1 and incubated with Amphotericin polymers, which were serially diluted 1:2 from 2500-2.44 μg/ml, for 16 hours in a 96 well plate. The concentration of polymer at which there was no visible growth was determined to be the MIC. C. albicans (Robin) ATCC200955, C. tropicalis ATCC200956, A. flavus ATCC16883 and F. keratoplasticum ATCC36031 were similarly cultured on solid Sabrauds (Oxoid) medium at 37° C. for 24 hours and stored at 4° C. for up to one month. Prior to experiments, colonies were sub-cultured into liquid Sabrauds medium overnight at 37° C. All liquid cultures were static apart from A. flavus which was incubated shaking at 100 rpm.

C. albicans SC5314 = experiment: Minimal inhibitory concentration (MIC), C. albicans SC5314; assay type: cell-based; settings: Candida albicans; C. albicans SC5314, 16 hours, no visible growth; Table 3a; read-out: MIC against SC5314
Experimental: as §1, §2

C[C@@H]1[C@H](O)[C@@H](C)/C=C/C=C/C=C/C=C/C=C/C=C/C=C/[C@H](O[C@@H]2O[C@H](C)[C@@H](O)[C@H](N)[C@@H]2O)C[C@@H]2O[C@](O)(C[C@@H](O)C[C@@H](O)[C@H](O)CC[C@@H](O)C[C@@H](O)CC(=O)O[C@H]1C)C[C@H](O)[C@H]2C(=O)O [Amp-B, amphotericin B]
MIC (C. albicans ATCC90028): 4 µg/mL (≈ 4.33 µM)
MIC (C. albicans SC5314): 0.4 µg/mL (≈ 0.433 µM)
